Test results as given in article PMC11746146 (Nature Structural & Molecular Biology, 2024).
No constants are given. Whether binding was seen depends on the method and setting.

B1: non-farnesylated GBP1-R48A (protein, UniProt P32455 1-592)
chain: MASEIHMTGPMCLIENTNGRLMANPEALKILSAITQPMVVVAIVGLYATGKSYLMNKLAGKKKGFSLGSTVQSHTKGIWMWCVPHPKKPGHILVLLDTEGLGDVEKGDNQNDSWIFALAVLLSSTFVYNSIGTINQQAMDQLYYVTELTHRIRSKSSPDENENEVEDSADFVSFFPDFVWTLRDFSLDLEADGQPLTPDEYLTYSLKLKKGTSQKDETFNLPRLCIRKFFPKKKCFVFDRPVHRRKLAQLEKLQDEELDPEFVQQVADFCSYIFSNSKTKTLSGGIQVNGPRLESLVLTYVNAISSGDLPCMENAVLALAQIENSAAVQKAIAHYEQQMGQKVQLPTETLQELLDLHRDSEREAIEVFIRSSFKDVDHLFQKELAAQLEKKRDDFCKQNQEASSDRCSALLQVIFSPLEEEVKAGIYSKPGGYRLFVQKLQDLKKKYYEEPRKGIQAEEILQTYLKSKESMTDAILQTDQTLTEKEKEIEVERVKAESAQASAKMLQEMQRKNEQMMEQKERSYQEHLKQLTEKMENDRVQLLKEQERTLALKLQEQEQLLKEGFQKESRIMKNEIQDLQTKMRRRKACTIS
B2: farnesylated GBP1F-R48A (protein, UniProt P32455 1-592)
chain: B1 chain
modifications: C-terminal C15-farnesyl moiety (CaaX isoprenylation motif)

Experiments:
[1] = molecular target: non-farnesylated GBP1-R48A (human) (UniProt P32455); test: SEC-MALS; GBP1-R48A and GBP1F-R48A; the nucleotide condition is not told in the legend; both purified
[2] = molecular target: farnesylated GBP1F-R48A (human) (UniProt P32455); test: as above

Binder	binding [1]	binding [2]
B1	no binding	
B2		no binding
